Values quoted from earlier work as cited in patent publication US7671089B2 (XenoPort, Inc., priority 2004, dated 2010).
Some results were stated once for a whole list of compounds, not compound by compound.

Conditions: levodopa and carbidopa co-administered

SMILES | half-life
C[C@@](Cc1ccc(O)c(O)c1)(NN)C(=O)O [carbidopa] | less than 2 hours
N[C@@H](Cc1ccc(O)c(O)c1)C(=O)O [levodopa, L-3,4-dihydroxyphenylalanine] | less than 2 hours
